Results published in PMC7933155, “IL-23p19 and CD5 antigen-like form a possible novel heterodimeric cytokine and contribute to experimental autoimmune encephalomyelitis development” (Scientific Reports, 2021).
No constants are given. Whether binding was seen depends on the method and setting. In cells and extracts the contact can be indirect. Tags and fused reporters may be left off the sequences shown.

Target: T1, mouse CD5 antigen-like with c-MYC tag (pCMV3-CD5L-c-MYC) (mouse) (UniProt Q9QWK4)
T1 sequence: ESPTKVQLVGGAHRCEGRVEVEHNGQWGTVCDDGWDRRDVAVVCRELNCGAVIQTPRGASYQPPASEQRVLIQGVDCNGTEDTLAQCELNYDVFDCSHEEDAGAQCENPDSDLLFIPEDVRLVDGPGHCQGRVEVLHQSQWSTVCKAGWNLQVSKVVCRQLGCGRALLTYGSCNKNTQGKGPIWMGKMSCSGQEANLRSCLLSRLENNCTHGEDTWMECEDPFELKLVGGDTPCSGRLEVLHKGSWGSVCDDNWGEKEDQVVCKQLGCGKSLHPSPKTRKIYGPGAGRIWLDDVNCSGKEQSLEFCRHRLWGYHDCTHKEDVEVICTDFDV
Assay: co-IP; HEK293-F cells transiently cotransfected, 3 days; cell lysates (1% Nonidet P-40, 10 mM Tris-HCl pH 7.5, 150 mM NaCl, 1 mM EDTA) or culture supernatants; IP with anti-FLAG (M2) or anti-c-MYC (9E10) on protein G-Sepharose, 2 h to overnight at 4 °C; reducing SDS-PAGE; western blot with biotin-conjugated anti-c-MYC or anti-p19

mouse IL-23 p19 mutant C55S with C-terminal 3×FLAG (p3×FLAG-CMV-14-p19^C55S)
binding: no binding
